From paper PMC8828969, “Arylamine N-Acetyltransferase 1 Activity is Regulated by the Protein Acetylation Status” (Frontiers in Pharmacology, 2022)

Legend:
Type in all cases: cell-based, human
KDAC proteins = assay: KDAC (Sirtuin / HDAC) activity, both breast cancer cell lines (discussion summary); conditions: MDA-MB-231 and ZR-75-1 cell lines
Text: Supernatant was recovered ant kept on ice.

NAT1b transcript [1] = assay: NAT1b message expression, MDA-MB-231 or ZR-75-1 cells (summary statements); conditions: both cell lines, 10 and 100 µM, 48 h
Experimental: (§1) NAT1 mRNA levels were measured as described previously ([Millner et al., 2012]). Primers were designed to recognize only NAT1b expression. Briefly, total RNA was isolated cells lines using the RNeasy Mini kit (Qiagen, Hilden, GER) followed by removal of contaminating DNA by treatment with Turbo DNA-free (Ambion, Austin, TX, United States). cDNA was synthetized using the High-Capacity Reverse transcriptase kit (Life Technologies, Carlsbad, CA, United States) using 1 µg of total RNA in a 20 µL reaction following manufacturer’s instructions. Quantitative Reverse Transcription polymerase Chain Reaction (qRT-PCR) was used for the quantification of relative amount of NAT1, SIRT1 or SIRT2 mRNA in MDA-MB-231 and ZR-75-1 cells after drug treatment or siRNA KD assays. qRT-PCR reactions were done in the Step One Plus (Life Technologies, Carlsbad, CA, United States) containing 1 × final concentration of iTaq universal SYBR Green Supermix (Bio-Rad, Hercules, CA, United States) and 500 nm of each primer (Table 1) in a 20 µL reaction. β2-microglobulin (B2M) was used as housekeeping control to determine ΔCt (gene of interest Ct−B2M Ct ). ΔΔCt was determined by the subtraction of the smallest ΔCt and relative amounts of the gene of interest mRNA were calculated using 2^−ΔΔCt as previously described ([Barker et al., 2006]; [Salazar-Gonzalez et al., 2018b]). […]

NAT1b transcript [2] = assay: NAT1b mRNA quantification by qRT-PCR in ZR-75-1 cells; conditions: 48 h, vs vehicle
Experimental: as §1

NAT1 [3] = assay: NAT1 acetylation status (acetyl-lysine immunoprecipitation, AcNAT1/NAT1) in ZR-75-1 cells; conditions: 48 h, vs vehicle control
Experimental: (§2) In order to assess the acetylation status of NAT1 protein, MDA-MB-231(6 × 10^5) and ZR-75-1 (3 × 10^6) cells were seeded onto 100 mm cell culture dishes and allowed to attach overnight. The next day, cells were treated with either 10 µM or 100 µM of Sirtuin inhibitors (AGK2, EX527, Sirtinol), HDAC inhibitors (SAHA, TSA) or were transiently transfected with Sirt1 and Sirt2 SiRNA KD cocktail as described before. After 48-h drug treatment or 72-h siRNA transfection, cells were collected and lysed following the protocol of Signal-Seeker Acetyl-Lysine Detection kit (Citoskeleton, Denver, CO, United States). Briefly, after the incubation period concluded, cells were washed twice with PBS and lysed in ice-cold lysis buffer, 20 mM Tris-HCl (pH 7.4), 5 mM EDTA, 150 mM NaCl, 0.5% Triton X-100, 10 mM sodium butyrate and protease/phosphatase inhibitors cocktail. Cell lysates were incubated on ice for 20 min and isolated by centrifugation at 16,000 × g for 20 min. Supernatants were recovered and protein concentration was measured as described before. 150 µg of lysate was used for the IP; 1/10 of the sample was kept as input control. […] Densitometric analysis on the immunoblots was performed using ImageJ ([Schneider et al., 2012]) software or IMAGE STUDIO Lite software (LI-COR Biosciences, Lincoln, NE, United States), which enables quantitative analysis of blotting signals. […]

NAT1 [4] = assay: NAT1 acetylation status (acetyl-lysine immunoprecipitation, AcNAT1/NAT1) in MDA-MB-231 cells; conditions: 48 h, vs vehicle
Experimental: as §2

O=C(CCCCCCC(=O)Nc1ccccc1)NO [SAHA, Vorinostat]
dose producing inhibition of KDAC enzymatic activity (KDAC proteins): 1 µM | upregulation of NAT1b transcription, fold (NAT1b transcript [1]): 4-6 fold | NAT1b transcript expression, fold increase (NAT1b transcript [2]; 10 µM): ~5 fold | NAT1b transcript expression, fold increase (NAT1b transcript [2]; 100 µM): ~3 fold | NAT1 acetylation status, fold increase (NAT1 [3]; 10 µM): 1.6 fold | NAT1 acetylation status, fold increase (NAT1 [3]; 100 µM): 2.1 fold | NAT1 acetylation, fold increase (NAT1 [4]; 10 µM): 1.45 fold | NAT1 acetylation, fold increase (NAT1 [4]; 100 µM): 2 fold
